# Assay results published in paper PMC3276558, “The B-Cell Specific Transcription Factor, Oct-2, Promotes Epstein-Barr Virus Latency by Inhibiting the Viral Immediate-Early Protein, BZLF1”.
# The chains behind the UniProt entries cited, without tags or fusion partners.
# UniProt P09086: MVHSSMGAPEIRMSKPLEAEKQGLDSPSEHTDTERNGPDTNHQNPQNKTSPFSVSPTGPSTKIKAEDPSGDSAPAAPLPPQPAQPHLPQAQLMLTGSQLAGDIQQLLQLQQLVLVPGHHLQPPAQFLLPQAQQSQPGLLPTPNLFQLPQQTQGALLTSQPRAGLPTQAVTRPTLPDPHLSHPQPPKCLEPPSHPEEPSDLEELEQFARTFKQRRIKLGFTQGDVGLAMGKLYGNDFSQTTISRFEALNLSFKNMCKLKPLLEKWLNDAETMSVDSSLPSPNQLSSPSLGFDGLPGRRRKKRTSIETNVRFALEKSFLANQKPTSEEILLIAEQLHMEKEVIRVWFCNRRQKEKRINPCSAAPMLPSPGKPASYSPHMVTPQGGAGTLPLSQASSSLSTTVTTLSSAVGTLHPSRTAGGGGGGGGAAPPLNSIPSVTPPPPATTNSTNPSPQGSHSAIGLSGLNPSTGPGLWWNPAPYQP
# UniProt P03206: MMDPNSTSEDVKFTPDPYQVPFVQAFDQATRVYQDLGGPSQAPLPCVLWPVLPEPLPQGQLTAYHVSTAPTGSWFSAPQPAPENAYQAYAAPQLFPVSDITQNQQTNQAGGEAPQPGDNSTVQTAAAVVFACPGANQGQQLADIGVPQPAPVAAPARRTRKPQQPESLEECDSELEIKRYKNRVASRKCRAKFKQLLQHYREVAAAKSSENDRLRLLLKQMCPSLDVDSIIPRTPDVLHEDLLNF
# These are yes or no findings as the source states them, for the method shown. In cells and extracts the contact can be indirect. Some results given as binding are weak or reduced against the parent protein; the word gives no strength.
# Target: endogenous Oct-2 in MutuI cells (human (endogenous in MutuI)) (UniProt P09086)
# Assay: co-IP; endogenous proteins; MutuI cells treated with 5 µg/mL TGF-β; NP-40 lysis buffer; precipitated with anti-Oct-2 rabbit antibody or control antibody, immunoblot with anti-BZLF1
substance,measurement,value
endogenous BZLF1 in lytically infected MutuI cells (from UniProt P03206 1-245),binding,binds
